{"source": "PubChem BioAssay (NCATS)", "note": "The shares of active, inactive and inconclusive entries below differ from those in the screen. The source made the active and inactive calls. Calls come from the whole dose curve; as a rule, active = well fitted activation curve with a large enough effect; inconclusive = small, poorly fitted or top-dose-only effect; inactive = flat fitted curve, though single readings scatter. Potency is the fitted concentration of half-maximal effect.", "data": [{"test": "Cellular Toxicity (caspase-3) Jurkat (AID 655);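 note: cells exposed to compound for 16 h at 37 °C before reading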", "settings": "Jurkat caspase-3 activation, luminescence; caspase-3 activation: at 92.2 µM (top of the series), DMSO = 0%, tamoxifen = 100%", "description": "NIH Chemical Genomics Center [NCGC]\nNIH Molecular Libraries Screening Centers Network [MLSCN]\nNational Institutes of Environmental Health Sciences [NIEHS]\nNational Toxicology Program [NTP]\nWe have developed a 1536-well cell-based assay for quantitative high throughput screening (qHTS) against a number of cell lines to determine in vitro caspase 3/7 of small molecules. This particular assay uses the Jurkat cell line which is derived from human T cell leukemia.\nNCGC Assay Protocol Summary:\nThe Caspase-Glo 3/7 assay (Promega) is a homogeneous method to measure caspase-3 and caspase-7 activities in cultured cells. The quantitation of caspase 3/7 activity is based on the cleavage of a peptide-aminoluciferin substrate. After caspase cleaves the substrate the free aminoluciferin is liberated and serves as the substrate of luciferase, which generates the light. The luminescent signal is proportional to amount of caspase 3/7 activity present.\nUsing the Caspase-Glo 3/7 assay, the amount of caspase 3/7 activity was measured in the Jurkat cell line with complete culture medium following compound treatment for 16 hours. The assay was performed in opaque white 1536-well plates. In the screen, tamoxifen and doxorubicin were used as positive controls. Library compounds were measured for their ability to cause the activation of caspase 3/7 in the cell line, as reflected by an increase in luminescence signal, in a concentration-dependent manner. Data were normalized to the controls for basal activity (DMSO only) and 100% stimulation (100 uM tamoxifen). AC50 values were determined from concentration-response data modeled with the standard Hill equation.\nqHTS protocol for caspase 3/7 assay in Jurkat cells\n[Step] [Parameter] [Value] [Description]\n1. Reagent; 5 uL; 5000 Jurkat cells/well\n3. Controls; 23 nL; Tamoxifen 0.23 uM to 100 uM & Doxorubicin 7.0 pM to 100 uM\n4. Time; 16 hr; 37 °C incubation\n5. Reagent; 5 uL; Caspase-Glo 3/7 reagent\n6. Time; 20 min; Room Temperature\n7. Detection; Luminescence; Viewlux plate reader\nKeywords: caspase 3/7, apoptosis, Jurkat cell line, luminescence, NTPHTS, NTPHTS_NCGC, NIEHS, EPA, DSSTox, MLSMR, MLSCN, NIH Roadmap, qHTS, NCGC", "values": [{"smiles": "Cc1c(O)cccc1C(=O)N[C@@H](CSc1ccccc1)[C@H](O)CN1C[C@H]2CCCC[C@H]2C[C@H]1C(=O)NC(C)(C)C", "Potency": "active: 31.6 µM"}, {"smiles": "Oc1c(Cl)cc(Cl)c(Cl)c1Cc1c(O)c(Cl)cc(Cl)c1Cl", "caspase-3 activation": "inconclusive: 81.3%"}, {"smiles": "Nc1c2ccccc2nc2ccccc12", "Potency": "active: 31.6 µM"}, {"smiles": "COc1cc(/C=C/C(=O)CC(=O)/C=C/c2ccc(O)c(OC)c2)ccc1O", "caspase-3 activation": "inconclusive: 31.1%"}, {"smiles": "Nc1ncn([C@@H]2O[C@H](CO)[C@@H](O)[C@H]2O)c(=O)n1", "Potency": "active: 2 µM"}, {"smiles": "CN(C)c1ccc(C(=C2C=CC(=[N+](C)C)C=C2)c2ccc(N(C)C)cc2)cc1", "caspase-3 activation": "inconclusive: -6.37%"}, {"smiles": "CC(C)(C)CC(C)(C)c1ccc(OCCOCC[N+](C)(C)Cc2ccccc2)cc1", "caspase-3 activation": "inconclusive: 61.8%"}, {"smiles": "CCCCCCCCCCCCCCCC[n+]1ccccc1", "caspase-3 activation": "inconclusive: 35.9%"}, {"smiles": "Oc1c(I)cc(Cl)c2cccnc12", "caspase-3 activation": "inconclusive: 41.5%"}, {"smiles": "C[C@H]1O[C@@H](O[C@H]2[C@@H](O)C[C@H](O[C@H]3[C@@H](O)C[C@H](O[C@H]4CC[C@@]5(C)[C@H](CC[C@@H]6[C@@H]5C[C@@H](O)[C@]5(C)[C@@H](C7=CC(=O)OC7)CC[C@]65O)C4)O[C@@H]3C)O[C@@H]2C)C[C@H](O)[C@@H]1O", "Potency": "active: 0.0126 µM"}, {"smiles": "CC(=O)O[C@]1(C(C)=O)CC[C@H]2[C@@H]3C[C@H](C)C4=CC(=O)CC[C@]4(C)[C@H]3CC[C@@]21C", "caspase-3 activation": "inconclusive: 60.1%"}, {"smiles": "Oc1ccc(Cl)cc1Sc1cc(Cl)ccc1O", "caspase-3 activation": "inconclusive: 50.9%"}, {"smiles": "CC/C(=C(\\c1ccccc1)c1ccc(OCCN(C)C)cc1)c1ccccc1", "caspase-3 activation": "inconclusive: 59.5%"}]}]}
